Data from patent US8008337B2, “Azabicyclo[3.2.0] hept-3-yl compounds, a process for their preparation and pharmaceutical compositions containing them” (Les Laboratoires Servier, priority 2009, dated 2011).
Some of these results come from one statement about several compounds together.

By UniProt entry, the sequences of proteins in these tests, tags left out. Where a name states a change or a piece, a line headed by the entry shows the natural chain unless it says otherwise.
UniProt P58406: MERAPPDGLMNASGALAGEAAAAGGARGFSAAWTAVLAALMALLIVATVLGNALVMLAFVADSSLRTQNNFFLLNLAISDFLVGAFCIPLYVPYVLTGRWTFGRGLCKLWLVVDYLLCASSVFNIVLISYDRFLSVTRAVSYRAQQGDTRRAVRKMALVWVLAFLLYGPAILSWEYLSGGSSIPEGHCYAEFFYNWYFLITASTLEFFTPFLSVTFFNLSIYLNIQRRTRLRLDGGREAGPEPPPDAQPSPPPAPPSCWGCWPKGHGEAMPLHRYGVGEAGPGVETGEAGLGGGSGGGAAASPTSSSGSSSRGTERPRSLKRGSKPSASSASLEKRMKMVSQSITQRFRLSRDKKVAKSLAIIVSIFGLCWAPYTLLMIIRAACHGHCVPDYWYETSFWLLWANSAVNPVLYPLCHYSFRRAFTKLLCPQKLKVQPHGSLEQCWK

biological target: T1, type H3 central histamine receptors (Mus musculus, UniProt P58406); test: Cerebral levels of Nτ-methylhistamine in the NMRI mouse (ex vivo); settings: 3 mg/kg PO, one hour after treatment, vs carrier controls
T1 construct: from tissue; host or cells: brain of living NMRI mice

Increase in cerebral concentrations of Nτ-methyl-histamine, more than 100%:
CC(=O)Nc1ccc(OCCCN2C[C@H]3CC[C@H]3C2)cc1 [Example 5, N-(4-{3-[(1R,5S)-3-azabicyclo[3.2.0]hept-3-yl]propoxy}phenyl)acetamide]
Cl.NC(=O)c1ccc(OCCCN2C[C@H]3CC[C@H]3C2)cc1 [Example 1, 4-{3-[(1R,5S)-3-Azabicyclo[3.2.0]hept-3-yl]-propoxy}benzamide hydrochloride]
CN(C)C(=O)c1ccc(OCCCN2C[C@H]3CC[C@H]3C2)cc1.Cl [Example 8, 4-{3-[(1R,5S)-3-Azabicyclo[3.2.0]hept-3-yl]propoxy}-N,N-dimethyl-benzamide hydrochloride]
CC(=O)N(C)c1ccc(OCCCN2C[C@H]3CC[C@H]3C2)cc1.Cl [Example 17, N-(4-{3-[(1R,5S)-3-azabicyclo[3.2.0]hept-3-yl]propoxy}phenyl)-N-methylacetamide hydrochloride]
